Measurements from patent US20190276511A1 (BIONTECH RNA PHARMACEUTICALS, published 2019).
These are yes or no findings as the source states them, for the method shown. Some entries that bind do so weakly or less than the wild type. For part of these data: Tags and fused reporters may be left off the sequences shown.

Sequences of proteins named here, by UniProt entry; tags and fusion partners are left off. A change or cut given only in a name is not applied to a line headed by its entry.
UniProt P25942: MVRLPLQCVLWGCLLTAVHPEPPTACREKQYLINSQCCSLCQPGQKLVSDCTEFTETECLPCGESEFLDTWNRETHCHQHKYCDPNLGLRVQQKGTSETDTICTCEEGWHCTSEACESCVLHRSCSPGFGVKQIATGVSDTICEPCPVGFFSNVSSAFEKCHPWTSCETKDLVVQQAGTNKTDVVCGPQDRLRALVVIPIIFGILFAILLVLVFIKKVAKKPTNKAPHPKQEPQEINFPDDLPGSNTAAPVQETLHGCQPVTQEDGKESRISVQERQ

T1: OX40 receptor on cells (human, UniProt P43489 29-277)
T1 sequence (looked up): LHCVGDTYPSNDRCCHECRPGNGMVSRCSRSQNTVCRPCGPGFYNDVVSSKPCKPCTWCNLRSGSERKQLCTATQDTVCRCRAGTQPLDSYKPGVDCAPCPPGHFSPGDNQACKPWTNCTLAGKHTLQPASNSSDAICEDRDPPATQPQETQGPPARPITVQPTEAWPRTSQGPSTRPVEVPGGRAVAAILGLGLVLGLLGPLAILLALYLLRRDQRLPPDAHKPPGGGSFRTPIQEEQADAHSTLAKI

T2: OX40-Fc (human, UniProt P43489 29-214)
T2 construct: extracellular domain; hinge included for covalent assembly; also called OX40 receptor-Fc fusion protein; not shown: human Fc gamma 1 region including the hinge region
T2 sequence (looked up): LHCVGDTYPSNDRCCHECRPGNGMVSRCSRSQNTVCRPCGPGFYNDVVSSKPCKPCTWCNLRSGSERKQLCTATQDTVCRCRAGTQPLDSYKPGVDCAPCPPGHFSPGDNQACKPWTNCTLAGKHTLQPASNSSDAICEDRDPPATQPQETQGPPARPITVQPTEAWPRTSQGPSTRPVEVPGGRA

T3: CD27-Fc (human, UniProt P26842 20-191)
T3 construct: extracellular domain; hinge included for covalent assembly; also called CD27 receptor-Fc fusion protein; not shown: human Fc gamma 1 region including the hinge region
T3 sequence (looked up): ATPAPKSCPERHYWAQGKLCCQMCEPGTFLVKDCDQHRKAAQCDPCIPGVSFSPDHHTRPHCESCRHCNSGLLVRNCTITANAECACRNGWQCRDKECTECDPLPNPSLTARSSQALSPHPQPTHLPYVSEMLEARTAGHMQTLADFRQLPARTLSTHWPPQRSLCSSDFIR


Tests used:
CD40 receptor on cells [1] = target: T4, CD40 receptor on cells (human, UniProt P25942 21-277); experiment: flow cytometry, receptor on HT1080 cells, second receptor-Fc for detection
OX40 receptor on cells [2] = target: T1, OX40 receptor on cells; experiment: as above
OX40-Fc [3] = target: T2, OX40-Fc; experiment: ELISA, coated receptor-Fc
CD40-Fc [4] = target: T5, CD40-Fc (human, UniProt P25942 21-193); experiment: ELISA, coated receptor-Fc
T5 construct: extracellular domain; hinge included for covalent assembly; also called CD40 receptor-Fc fusion protein; not shown: human Fc gamma 1 region including the hinge region

CD40 receptor on cells [5] = target: T4, CD40 receptor on cells; experiment: flow cytometry, HT1080 transfectants, 100 nM
OX40 receptor on cells [6] = target: T1, OX40 receptor on cells; experiment: flow cytometry, HT1080 transfectants, 100 nM
OX40-Fc [7] = target: T2, OX40-Fc; experiment: flow cytometry, soluble receptor-Fc (10 nM) on cell-bound scDuokine
CD40-Fc [8] = target: T5, CD40-Fc; experiment: as above
OX40-Fc [9] = target: T2, OX40-Fc; experiment: ELISA, 100 nM, immobilized receptor-Fc
CD40-Fc [10] = target: T5, CD40-Fc; experiment: ELISA, 100 nM, immobilized receptor-Fc
OX40-Fc [11] = target: T2, OX40-Fc; experiment: ELISA titration from 316 nM
CD40-Fc [12] = target: T5, CD40-Fc; experiment: ELISA titration from 316 nM
[13] = target: CD27 receptor on cells (human) (UniProt P26842); experiment: flow cytometry, receptor on HT1080 cells, second receptor-Fc for detection
CD27-Fc [14] = target: T3, CD27-Fc; experiment: ELISA, coated receptor-Fc
[15] = target: CD27 receptor on cells (human) (UniProt P26842); experiment: flow cytometry, HT1080 transfectants, 100 nM
CD27-Fc [16] = target: T3, CD27-Fc; experiment: flow cytometry, soluble receptor-Fc (10 nM) on cell-bound scDuokine
CD27-Fc [17] = target: T3, CD27-Fc; experiment: ELISA, 100 nM, immobilized receptor-Fc
CD27-Fc [18] = target: T3, CD27-Fc; experiment: ELISA titration from 316 nM

Row | binding (CD40 receptor on cells [1]) | binding (OX40 receptor on cells [2]) | binding (OX40-Fc [3]) | binding (CD40-Fc [4]) | binding (CD40 receptor on cells [5]) | binding (OX40 receptor on cells [6]) | binding (OX40-Fc [7]) | binding (CD40-Fc [8]) | binding (OX40-Fc [9]) | binding (CD40-Fc [10]) | binding (OX40-Fc [11]) | binding (CD40-Fc [12]) | binding [13] | binding (CD27-Fc [14]) | binding [15] | binding (CD27-Fc [16]) | binding (CD27-Fc [17]) | binding (CD27-Fc [18]) | Binder
1 | binds | binds | binds | binds | binds | binds | binds | binds | binds | binds | binds | binds | – | – | – | – | – | – | scCD40L-scOX40L (ligand, scDuokine from HEK293, FLAG-purified; VH leader left out; also called single-chain Duokine scCD40L-scOX40L; not shown: N-terminal FLAG tag) GDQNPQIAAHVISEASSKTTSVLQWAEKGYYTMSNNLVTLENGKQLTVKRQGLYYIYAQVTFCSNREASSQAPFIASLCLKSPGRFERILLRAANTHSSAKPCGQQSIHLGGVFELQPGASVFVNVTDPSQVSHGTGFTSFGLLKLGGGSGGGGDQNPQIAAHVISEASSKTTSVLQWAEKGYYTMSNNLVTLENGKQLTVKRQGLYYIYAQVTFCSNREASSQAPFIASLCLKSPGRFERILLRAANTHSSAKPCGQQSIHLGGVFELQPGASVFVNVTDPSQVSHGTGFTSFGLLKLGGGSGGGGDQNPQIAAHVISEASSKTTSVLQWAEKGYYTMSNNLVTLENGKQLTVKRQGLYYIYAQVTFCSNREASSQAPFIASLCLKSPGRFERILLRAANTHSSAKPCGQQSIHLGGVFELQPGASVFVNVTDPSQVSHGTGFTSFGLLKLGGGGSGGGTGGGGSQVSHRYPRIQSIKVQFTEYKKEKGFILTSQKEDEIMKVQNNSVIINCDGFYLISLKGYFSQEVNISLHYQKDEEPLFQLKKVRSVNSLMVASLTYKDKVYLNVTTDNTSLDDFHVNGGELILIHQNPGEFCVLGGGSGGGQVSHRYPRIQSIKVQFTEYKKEKGFILTSQKEDEIMKVQNNSVIINCDGFYLISLKGYFSQEVNISLHYQKDEEPLFQLKKVRSVNSLMVASLTYKDKVYLNVTTDNTSLDDFHVNGGELILIHQNPGEFCVLGGGSGGGQVSHRYPRIQSIKVQFTEYKKEKGFILTSQKEDEIMKVQNNSVIINCDGFYLISLKGYFSQEVNISLHYQKDEEPLFQLKKVRSVNSLMVASLTYKDKVYLNVTTDNTSLDDFHVNGGELILIHQNPGEFCVL
2 | – | binds | binds | – | – | binds | binds | – | binds | – | binds | – | binds | binds | binds | binds | binds | binds | scCD27L-scOX40L (ligand, scDuokine from HEK293, FLAG-purified; VH leader left out; also called single-chain Duokine scCD27L-scOX40L; not shown: N-terminal FLAG tag) SLGWDVAELQLNHTGPQQDPRLYWQGGPALGRSFLHGPELDKGQLRIHRDGIYMVHIQVTLAICSSTTASRHHPTTLAVGICSPASRSISLLRLSFHQGCTIASQRLTPLARGDTLCTNLTGTLLPSRNTDETFFGVQWVRPGGGSGGGSLGWDVAELQLNHTGPQQDPRLYWQGGPALGRSFLHGPELDKGQLRIHRDGIYMVHIQVTLAICSSTTASRHHPTTLAVGICSPASRSISLLRLSFHQGCTIASQRLTPLARGDTLCTNLTGTLLPSRNTDETFFGVQWVRPGGGSGGGSLGWDVAELQLNHTGPQQDPRLYWQGGPALGRSFLHGPELDKGQLRIHRDGIYMVHIQVTLAICSSTTASRHHPTTLAVGICSPASRSISLLRLSFHQGCTIASQRLTPLARGDTLCTNLTGTLLPSRNTDETFFGVQWVRPGGGGSGGGTGGGGSQVSHRYPRIQSIKVQFTEYKKEKGFILTSQKEDEIMKVQNNSVIINCDGFYLISLKGYFSQEVNISLHYQKDEEPLFQLKKVRSVNSLMVASLTYKDKVYLNVTTDNTSLDDFHVNGGELILIHQNPGEFCVLGGGSGGGQVSHRYPRIQSIKVQFTEYKKEKGFILTSQKEDEIMKVQNNSVIINCDGFYLISLKGYFSQEVNISLHYQKDEEPLFQLKKVRSVNSLMVASLTYKDKVYLNVTTDNTSLDDFHVNGGELILIHQNPGEFCVLGGGSGGGQVSHRYPRIQSIKVQFTEYKKEKGFILTSQKEDEIMKVQNNSVIINCDGFYLISLKGYFSQEVNISLHYQKDEEPLFQLKKVRSVNSLMVASLTYKDKVYLNVTTDNTSLDDFHVNGGELILIHQNPGEFCVL
3 | binds | – | – | binds | binds | – | – | binds | – | binds | – | binds | binds | binds | binds | binds | binds | binds | scCD27L-scCD40L (ligand, scDuokine from HEK293, FLAG-purified; VH leader left out; also called single-chain Duokine scCD27L-scCD40L; not shown: N-terminal FLAG tag) SLGWDVAELQLNHTGPQQDPRLYWQGGPALGRSFLHGPELDKGQLRIHRDGIYMVHIQVTLAICSSTTASRHHPTTLAVGICSPASRSISLLRLSFHQGCTIASQRLTPLARGDTLCTNLTGTLLPSRNTDETFFGVQWVRPGGGSGGGSLGWDVAELQLNHTGPQQDPRLYWQGGPALGRSFLHGPELDKGQLRIHRDGIYMVHIQVTLAICSSTTASRHHPTTLAVGICSPASRSISLLRLSFHQGCTIASQRLTPLARGDTLCTNLTGTLLPSRNTDETFFGVQWVRPGGGSGGGSLGWDVAELQLNHTGPQQDPRLYWQGGPALGRSFLHGPELDKGQLRIHRDGIYMVHIQVTLAICSSTTASRHHPTTLAVGICSPASRSISLLRLSFHQGCTIASQRLTPLARGDTLCTNLTGTLLPSRNTDETFFGVQWVRPGGGGSGGGTGGGGSGDQNPQIAAHVISEASSKTTSVLQWAEKGYYTMSNNLVTLENGKQLTVKRQGLYYIYAQVTFCSNREASSQAPFIASLCLKSPGRFERILLRAANTHSSAKPCGQQSIHLGGVFELQPGASVFVNVTDPSQVSHGTGFTSFGLLKLGGGSGGGGDQNPQIAAHVISEASSKTTSVLQWAEKGYYTMSNNLVTLENGKQLTVKRQGLYYIYAQVTFCSNREASSQAPFIASLCLKSPGRFERILLRAANTHSSAKPCGQQSIHLGGVFELQPGASVFVNVTDPSQVSHGTGFTSFGLLKLGGGSGGGGDQNPQIAAHVISEASSKTTSVLQWAEKGYYTMSNNLVTLENGKQLTVKRQGLYYIYAQVTFCSNREASSQAPFIASLCLKSPGRFERILLRAANTHSSAKPCGQQSIHLGGVFELQPGASVFVNVTDPSQVSHGTGFTSFGLLKL
